According to US12043674B2 (Auburn University, priority 2020, dated 2024):

Assay: general procedure: Fmoc solid-phase peptide synthesis; Rink amide resin; HBTU/DIEA; HOAt/DIC for first amino acid and after proline
Settings: cyclisation step; for final HPLC purity: 220 nm

Substance | outcome | final HPLC purity
H-APCA-aldehyde | No product was observed under the reaction conditions. | –
NH2-APGAFE(CHO)Y | No product was observed under the reaction conditions. | –
cyc(Ala-Gly-Pro-Glu)-Phe | – | >95%
cyc(Ala-Gly-Pro-Phe-Glu)-Tyr | – | >95%
cyc(Ala-Ile-Gly-Pro-Phe-Ala) | – | >95%
cyc(Ala-Lys-Gly-Pro-Asp-Gly-Arg-Ala)-Fluorescein isothiocyanate (FITC) | – | >95%
cyc(Ala-Phe-Gly-Pro-Ala) | – | >95%
cyc(Ala-Phe-Pro-Glu)-Phe | – | >95%
cyc(Ala-Val-Gly-Ala-Phe-Glu-Tyr)-Ala) | – | >95%
cyc(Ala-Val-Gly-Pro-Phe-Lys(CO)-Tyr | – | >95%
cyc(Asn-Gly-Pro-Glu-Phe) | – | >95%
cyc(Asn-Phe-Ile-Pro-Cys-Tyr-Glu)-His | – | >95%
cyc(Asn-Phe-Pro-Phe-Glu)-Lys | – | >95%
cyc(Asn-Val-Gly-Ala-Phe-Glu)-Tyr | – | >95%
cyc(Asn-Val-Gly-Pro-Phe-Glu)-Tyr (NVGPFEY; head-to-tail cyclic; Glu side-chain aldehyde; 1f and 2f) | – | >95%
cyc(Asp-Phe-Pro-Glu)-Phe | – | >95%

Substance | outcome | final HPLC purity
cyc(Asp-Val-Gly-Pro-Phe-Glu)-Tyr | – | >95%
cyc(Gln-Asp-Ile-Pro-Tyr-Leu-Glu)-Ser | – | >95%
cyc(Gln-Gly-Pro-Glu)-Phe | – | >95%
cyc(Gln-Phe-Pro-Tyr-Glu)-Met | – | >95%
cyc(Gln-Val-Gly-Ala-Phe-Glu)-Tyr | – | >95%
cyc(Gln-Val-Gly-Pro-Phe-Glu)-Tyr | – | >95%
cyc(Gln-Val-Gly-Pro-Phe-Phe-Gly) | – | >95%
cyc(Lys-Val-Gly-Pro-Phe-Glu)-Tyr | – | >95%
cyc(Pro-Phe-Pro-Glu)-Phe | – | >95%
cyc(Pro-Val-Gly-Pro-Phe-Glu)-Tyr | – | >95%
cyc(Trp-Val-Gly-Pro-Phe-Glu)-Tyr | – | >95%
cyc(Tyr-Phe-Pro-Glu)-Phe | – | >95%
cyc(Tyr-Val-Gly-Pro-Phe-Glu)-Tyr | – | >95%
cyc(Val-Gly-Pro-Glu)-Phe | – | >95%
cyc(Val-Phe-Pro-Glu)-Phe | – | >95%
cyc(Val-Val-Gly-Pro-Phe-Glu)Tyr) | – | >95%

One purity is given for all peptides; the source may state it once.
